# The campaign covered roughly 580,000 compounds. About 6,100 (1.1%) were called active. This list was built around the results that the source calls inconclusive (neither active nor inactive); the mix of calls is not that of the screen. Calls come from the whole dose curve; as a rule, active = well fitted inhibition curve with a large enough effect; inconclusive = small, poorly fitted or top-dose-only effect, or another doubt; inactive = no such curve, though single readings can be large or run the other way. A potency beside an inconclusive call is a rough fit, not a confirmed value.
# Amino acid sequences for entries named in this document (tags omitted). A change or cut given only in a name is not applied to a line headed by its entry.
# UniProt P18054: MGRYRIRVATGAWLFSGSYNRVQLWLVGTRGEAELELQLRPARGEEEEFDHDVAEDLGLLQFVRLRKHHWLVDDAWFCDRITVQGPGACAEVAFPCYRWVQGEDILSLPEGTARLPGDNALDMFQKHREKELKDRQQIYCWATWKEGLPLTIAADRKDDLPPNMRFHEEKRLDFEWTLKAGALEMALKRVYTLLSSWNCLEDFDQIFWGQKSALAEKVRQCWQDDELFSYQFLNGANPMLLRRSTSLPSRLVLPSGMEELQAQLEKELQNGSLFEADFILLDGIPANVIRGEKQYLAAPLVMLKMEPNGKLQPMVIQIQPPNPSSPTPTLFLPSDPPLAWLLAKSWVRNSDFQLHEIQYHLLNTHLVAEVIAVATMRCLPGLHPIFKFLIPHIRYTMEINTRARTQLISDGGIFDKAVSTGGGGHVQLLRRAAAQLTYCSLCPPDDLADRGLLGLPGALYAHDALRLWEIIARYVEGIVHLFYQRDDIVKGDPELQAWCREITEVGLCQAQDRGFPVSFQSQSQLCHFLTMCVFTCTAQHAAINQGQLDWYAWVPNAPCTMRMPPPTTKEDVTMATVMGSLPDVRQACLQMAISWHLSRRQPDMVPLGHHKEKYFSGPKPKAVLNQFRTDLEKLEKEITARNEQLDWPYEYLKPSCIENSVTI
# Target: Polyunsaturated fatty acid lipoxygenase ALOX12 (Homo sapiens) (UniProt P18054)
# Assay: Primary qHTS assay for inhibitors of human arachidonate 12S-lipoxygenase (ALOX12): Round 2
# Conditions: purified 12hLO, xylenol orange hydroperoxide absorbance; activity change, negative = inhibition: at 108 µM (top of the series) unless noted
# In short: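 Purified human 12hLO at 150 nM in 25 mM Hepes, 0.01% Triton X-100, pH 7.0, preincubated 15 min at room temperature with compound. Reaction started with 40 uM arachidonic acid, 30 min at room temperature. Hydroperoxide measured by Fe-xylenol orange, 573/405 nm absorbance ratio.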
# % is set by controls: 0 for no effect and ±100 for the full control effect; potency is the fitted concentration of half-maximal effect.
SMILES,Potency,"activity change, negative = inhibition"
FC(F)(F)c1cc(CCN2C(=S)NC[C@@H]2CC2CCCCC2)cc(C(F)(F)F)c1,"inconclusive: 39.8 µM [inhibitor, partial curve, poor fit]",
Cc1nc(C(=O)N2CC[C@H](N3CCN(C)CC3)[C@H](CCCO)C2)cs1,"inconclusive: 2.51 µM [inhibitor, full curve, poor fit]",
COc1ccccc1-c1cc(=O)c2cc(NC(=O)c3ccccc3F)ccc2o1,"inconclusive: 126 µM [inhibitor, partial curve, poor fit]",
CCCSc1nsc(SCCC)c1C(N)=O,"inconclusive: 50.1 µM [inhibitor, partial curve, poor fit]",
Cc1nn(C)c2c1c(-c1ccccc1)cc(=O)n2Cc1ccccc1Cl,,inactive: -29.9%
CCOC(=O)c1sc(NC(=O)N2CCN(CC)CC2)c(C(=O)OCC)c1C,,inactive: -7.55%
Cc1cccc(CN2CCCC(C(=O)c3ccc4c5c(cccc35)CC4)C2)n1 (stereo unspecified),"inconclusive: 20 µM [inhibitor, partial curve, poor fit]",
CC(C)CSc1nnc(CNC(=O)c2ccccn2)n1C,,inactive: 0.298%
Cc1cc(NC(=O)CCNS(=O)(=O)c2ccc3c(c2)CCCC(=O)N3)ccc1Br,"inconclusive: 100 µM [inhibitor, partial curve, poor fit]",
COc1cccc(CN(C)C(=O)C23CC4CC(CC(C4)C2)C3)c1OC,,inactive: 0.187%
S=C(NCc1ccccc1)Nc1ccccc1I,"inconclusive: 3.98 µM [inhibitor, full curve]",
Oc1ccc(/C=N/Nc2cc(N3CCCC3)nc(N3CCCC3)n2)cc1,"inconclusive: 39.8 µM [inhibitor, partial curve, poor fit]",
Cc1ccc(-c2ccc(S(=O)(=O)NCc3ccco3)cc2)cc1,"inconclusive: 126 µM [inhibitor, single point]",
COc1cccc(-n2c(=O)c3c(C)c(C(=O)N(C)C)sc3n(CC(=O)Nc3ccc(C)cc3Cl)c2=O)c1,"inconclusive: 141 µM [inhibitor, partial curve, poor fit]",
O=C(C1=C[C@@H](c2ccc3c(c2)OCO3)C[C@@H](OCCCCO)O1)N1CCOCC1,"inconclusive: 31.6 µM [inhibitor, partial curve]",
CCOc1ccc(NC(=O)c2cccc(Nc3ccnc(-c4ccc(F)cc4)n3)c2)cc1,"inconclusive: 50.1 µM [inhibitor, partial curve, poor fit]",
O=C(Nc1ccc2c(c1)N(C1CCCC1)C(=O)c1ccccc1S2)c1cccc(F)c1,"inconclusive: 126 µM [inhibitor, partial curve, poor fit]",
CCSc1nc2sc3c(c2c(=O)n1C1CCCCC1)CCN(C)C3,"inconclusive: 31.6 µM [inhibitor, partial curve, poor fit]",
COc1ccc(CNC(=O)CSCc2nc(-c3ccc(OC)c(OC)c3)oc2C)cc1,,inactive: 4.71%
CC(=O)NCC(=O)N1Cc2ccccc2CC2(CCCCN2CC2CCCC2)C1 (stereo unspecified),,inactive: 4.85% [at 6.33 µM]
CC(O)(C#Cc1ccc2c(c1)N(c1nc(N)ncc1Cl)CC2)c1nccs1 (stereo unspecified),"inconclusive: 4.32 µM [inhibitor, partial curve]",
Cc1c(C)n(Cc2ccccc2)c2ccc(C(=O)NCCc3ccccc3Cl)cc12,,inactive: 0%

SMILES,Potency,"activity change, negative = inhibition"
O=c1oc2cc(OCCN3CCN(CCO)CC3)ccc2cc1-c1ccccc1,"inconclusive: 44.7 µM [inhibitor, partial curve]",
Cc1ccccc1C(=O)NCCn1c(C)cc2ccccc21,"inconclusive: 100 µM [inhibitor, single point]",
COc1ccc(C2/C(=C(\O)c3ccc4c(c3)OCCO4)C(=O)C(=O)N2Cc2cccnc2)cc1OC (stereo unspecified),"inconclusive: 79.4 µM [inhibitor, partial curve, poor fit]",
CCCCc1cc(=O)oc2cc(OCC(=O)Nc3ccc(C(N)=O)cc3)ccc12,"inconclusive: 79.4 µM [inhibitor, single point]",
CCn1c(SCC(=O)c2ccc(Cl)cc2)nnc1C(C)C,"inconclusive: 15.8 µM [inhibitor, partial curve, poor fit]",
O=C(NCCc1csc(-c2cccc(F)c2)n1)c1ccc(Br)o1,"inconclusive: 126 µM [inhibitor, partial curve, poor fit]",
COC(=O)C(CC(=O)c1ccc(Cl)cc1)c1ccc(C)cc1 (stereo unspecified),,inactive: 0%
COc1cc(/C=N/NC(=S)Nc2cccc(C(=O)O)c2)cc(OC)c1OC,"inconclusive: 39.8 µM [inhibitor, partial curve]",
COc1ccc2[nH]c(=O)c(CN(Cc3ccccc3)Cc3nnnn3CC3CCCO3)cc2c1 (stereo unspecified),,inactive: 6.83%
CCOC(=O)c1c(-c2ccc(C)o2)csc1N,"inconclusive: 35.5 µM [inhibitor, single point]",
CC(C)c1ccc2c(c1)C1(NN=C(c3ccccc3)S1)C(=O)N2 (stereo unspecified),"inconclusive: 35.5 µM [inhibitor, single point]",
COc1ccc2[nH]cc(C(=O)CNc3nc(C)cs3)c2c1,"inconclusive: 28.2 µM [inhibitor, partial curve, poor fit]",
CCOc1ccc(C(=O)NCC(=O)OCC(=O)NC2CCCC2)cc1,"inconclusive: 112 µM [inhibitor, partial curve, poor fit]",
COc1c(N2CCN(C(=S)NCc3ccccc3)C(C)C2)c(F)cc2c(=O)c(C(=O)O)cn(C3CC3)c12 (stereo unspecified),,inactive: 0%
CCSc1ccc([C@@H]2[C@H]3C(=O)N(CC)C(=O)[C@H]3[C@]3(C(=O)OC)CCCCN23)cc1,"inconclusive: 39.8 µM [inhibitor, partial curve, poor fit]",
Fc1ccc(NC(=S)NCCc2ccccc2F)cc1,"inconclusive: 50.1 µM [inhibitor, partial curve, poor fit]",
O=C(CC1COCCN1)N(Cc1cccnc1)Cc1cccnc1 (stereo unspecified),"inconclusive: 10 µM [inhibitor, full curve, poor fit]",
O=C(c1ccccc1)c1nn(-c2ccc(Cl)cc2)cc1C(=O)c1cc2ccccc2oc1=O,,inactive: -19.3%
N=c1sccn1CC(=O)N1N=C(c2ccc(Cl)cc2)CC1c1ccco1 (stereo unspecified),,inactive: -19.9%
Fc1ccccc1-c1nnc(SCCc2ccncc2)n1C1CC1,,inactive: 6.41%
CCOc1ccccc1CNC(=O)CCc1cn(Cc2ccc(Cl)cc2)c2ccccc12,,inactive: 0%
COc1ccccc1C(=O)NNC(=O)C(=O)Nc1ccc(C)c(Cl)c1,,inactive: 0%

# Structural class: the compounds so far containing a COOH group (two)
SMILES,Potency,"activity change, negative = inhibition"
COc1cc(/C=N/NC(=S)Nc2cccc(C(=O)O)c2)cc(OC)c1OC,"inconclusive: 39.8 µM [inhibitor, partial curve]",
COc1c(N2CCN(C(=S)NCc3ccccc3)C(C)C2)c(F)cc2c(=O)c(C(=O)O)cn(C3CC3)c12 (stereo unspecified),,inactive: 0%

# Next part:

SMILES,Potency,"activity change, negative = inhibition"
COCCn1c(=O)[nH]c(=O)c2c3c(cnc21)C(=O)CC(c1ccccc1)C3 (stereo unspecified),,inactive: 16.2%
C=CCNC(=O)c1nn(Cc2ccccc2)c(=O)c2ccccc12,"inconclusive: 4.47 µM [inhibitor, full curve, poor fit]",
Cc1ccc(CNS(=O)(=O)c2ccc(Cl)s2)cc1,"inconclusive: 35.5 µM [inhibitor, partial curve, poor fit]",
Cc1ncoc1C(=O)N1CCc2c([nH]c3ccccc23)C1c1ccccc1F (stereo unspecified),,inactive: 5.62%
O=C(Nc1ccccc1)c1ccccc1NC(=O)c1ccccc1[N+](=O)[O-],,inactive: 423%
Cc1ccc(OCC(=O)Nc2ccc(F)cc2)c([N+](=O)[O-])n1,,inactive: -8.59%
Nc1nonc1C(=O)N/N=C/c1cc2c(cc1Br)OCO2,"inconclusive: 79.4 µM [inhibitor, partial curve, poor fit]",
CC(=O)OCC1OC(c2ccccc2)C(OC(C)=O)C(OC(C)=O)C1OC(C)=O (stereo unspecified),,inactive: -2.61%
Cc1ccc(C)c(OCCn2cc(/C=C(/C#N)C(=O)NCC3CCCO3)c3ccccc32)c1 (stereo unspecified),,inactive: -21.9%
CCOCCCN1CN(S(=O)(=O)c2ccc(Cl)cc2)c2nc3ccccc3nc21,"inconclusive: 44.7 µM [inhibitor, partial curve, poor fit]",
CCN(CC)C(=O)Cn1c(SCCOc2ccc(Cl)cc2)nc2ccccc21,,inactive: 0%
Cc1ccnc(NC(=O)CCC(=O)c2cccs2)c1,,inactive: -26.5%
O=C(NC(c1ccccc1)c1ccc(Cl)cc1)c1ccc[n+]([O-])c1 (stereo unspecified),"inconclusive: 10 µM [inhibitor, full curve, poor fit]",
Cn1c(=O)[nH]c(=O)c2c1nc(N1CCN(Cc3ccccc3)CC1)n2CCCc1ccccc1,inactive,
NCCN1CCN(S(=O)(=O)c2ccc([N+](=O)[O-])cc2)C=C1c1ccc(Cl)cc1,"inconclusive: 31.6 µM [inhibitor, partial curve, poor fit]",
CC(C)c1ccc(-n2ccnc(NCc3ccc4c(c3)OCO4)c2=O)cc1,"inconclusive: 6.31 µM [inhibitor, full curve, poor fit]",
O=C(NCCCN1CCCC1=O)c1cc(-c2ccc3c(c2)OCO3)nc2ccccc12,"inconclusive: 50.1 µM [inhibitor, partial curve, poor fit]",
O=C(NC(=S)Nc1ccc(S(=O)(=O)N2CCCCC2)cc1)c1ccc(Cl)cc1,"inconclusive: 2.82 µM [inhibitor, partial curve, poor fit]",
Clc1ccc(Cl)c(-c2ccc(CNCC3CCNCC3)o2)c1,"inconclusive: 39.8 µM [inhibitor, partial curve, poor fit]",
CO[C@H]1[C@H](NC(=O)c2ccco2)c2ccccc2C12CCN(Cc1cc(Cl)ccc1O)CC2,"inconclusive: 89.1 µM [inhibitor, single point]",
COc1cc(Nc2cc3c(cn2)cc(-c2cccnc2)n3C)cc(C(F)(F)F)c1,"inconclusive: 112 µM [inhibitor, single point]",
O=c1[nH]c(SCc2ccccc2Cl)nc2c1cnn2-c1ccccc1,"inconclusive: 79.4 µM [inhibitor, single point]",

# Reference: PubChem BioAssay AID1671190 (National Center for Advancing Translational Sciences (NCATS), 2021)
